# In PubChem BioAssay AID743255 (National Center for Advancing Translational Sciences (NCATS), 2014):
# By UniProt entry, the sequences of proteins in these tests, tags left out. Where a name states a change or a piece, a line headed by the entry shows the natural chain unless it says otherwise.
# UniProt O94782: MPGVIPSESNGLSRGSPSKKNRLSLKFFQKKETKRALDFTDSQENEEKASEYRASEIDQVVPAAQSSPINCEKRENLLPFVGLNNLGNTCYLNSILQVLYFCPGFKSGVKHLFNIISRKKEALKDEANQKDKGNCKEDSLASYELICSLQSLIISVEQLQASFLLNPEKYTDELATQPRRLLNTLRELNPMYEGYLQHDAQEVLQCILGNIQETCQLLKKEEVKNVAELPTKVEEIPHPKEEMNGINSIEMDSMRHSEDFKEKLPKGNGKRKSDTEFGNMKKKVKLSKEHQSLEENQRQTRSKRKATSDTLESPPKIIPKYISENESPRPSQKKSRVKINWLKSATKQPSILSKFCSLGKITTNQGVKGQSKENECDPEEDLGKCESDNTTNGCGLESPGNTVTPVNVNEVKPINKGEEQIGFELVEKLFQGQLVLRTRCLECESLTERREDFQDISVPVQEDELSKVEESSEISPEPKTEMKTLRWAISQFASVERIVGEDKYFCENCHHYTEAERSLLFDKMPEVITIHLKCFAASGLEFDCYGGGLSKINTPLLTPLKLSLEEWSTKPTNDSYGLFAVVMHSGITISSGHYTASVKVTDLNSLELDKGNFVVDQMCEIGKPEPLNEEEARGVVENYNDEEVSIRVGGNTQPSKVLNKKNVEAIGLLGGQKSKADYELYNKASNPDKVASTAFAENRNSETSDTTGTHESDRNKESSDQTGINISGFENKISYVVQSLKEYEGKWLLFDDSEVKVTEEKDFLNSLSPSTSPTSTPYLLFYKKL
# In all, about 390,000 compounds went through this assay and about 910 (0.23%) were called active. The shares of active, inactive and inconclusive entries below differ from those in the screen. The call rests on the fitted dose curve; in most records, active means well fitted inhibition curve with a large enough effect; inconclusive means small, poorly fitted or top-dose-only effect; inactive means no such curve, though single readings can be large or run the other way. Where the call is inconclusive, the potency comes from a doubtful curve fit.
# Target: Ubiquitin carboxyl-terminal hydrolase 1 (Homo sapiens) (UniProt O94782)
# Assay: Inhibitors of USP1/UAF1: Primary Screen; further: nearly all actives have a fitted effect of over 60% in size
# Settings: recombinant USP1/UAF1, Ub-Rhodamine cleavage fluorescence; series mostly up to 57.1 µM
# In short: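 USP1/UAF1 complex (1 nM) preincubated 15 min at room temperature with compound, then Ub-Rho substrate (150 nM final) added. Kinetic fluorescence at 480/540 nm over 6 reads at 60 s intervals; 50 mM HEPES pH 7.8, 0.5 mM EDTA, 0.1 mg/ml BSA, 1 mM TCEP, 0.01% Tween-20.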
# Potency means the concentration at half of the fitted maximal effect.
row,SMILES,Potency
1,C=CCn1c(=S)[nH]c2scc(-c3ccc(C)o3)c2c1=O,"inconclusive: 31.6 µM [inhibitor, partial curve, poor fit]"
2,Brc1ccc(CSc2ccc(-c3ccco3)nn2)cc1,"inconclusive: 7.94 µM [inhibitor, single point]"
3,N#CC1=C(N)OC(c2ccccc2)=C(C#N)C1c1ccc2c(c1)OCO2 (configuration not stated),inactive
4,Cc1ccc(C)c(NC(=O)CSc2ncc3c(n2)-c2ccc(Cl)cc2N(C)S3(=O)=O)c1,"inconclusive: 8.91 µM [inhibitor, full curve, poor fit]"
5,C(=Cc1cccnc1)c1ccncc1,inactive
6,CCOc1ccc(-c2nn(-c3ccccc3)cc2/C=C2\SC(=S)N(C3CCS(=O)(=O)C3)C2=O)cc1 (configuration not stated),"inconclusive: 3.98 µM [inhibitor, full curve]"
7,CC(C)(C)c1ccc(NC(=O)c2cc[n+]([O-])cc2)cc1,"inconclusive: 10 µM [inhibitor, partial curve, poor fit]"
8,COc1cc(/C=N/NC(=O)c2ccc(COc3ccccc3Cl)o2)cc(Br)c1O,"inconclusive: 50.1 µM [inhibitor, partial curve, poor fit]"
9,CCOC(=O)N1CCC(N2CCN(Cc3ccc(C)o3)C(CCO)C2)CC1 (configuration not stated),inactive
10,CCN=C1SC(CC(=O)Nc2ccccc2)C(=O)N1CC (configuration not stated),"inconclusive: 5.62 µM [inhibitor, full curve, poor fit]"
11,O=C(Cn1ccc(C(F)(F)F)n1)N=Nc1c(O)[nH]c2ccccc12,"inconclusive: 39.8 µM [inhibitor, partial curve]"
12,O=C(O)c1ccc(N=c2oc3cc(O)ccc3cc2C(=O)NCc2ccccc2)cc1,"inconclusive: 35.5 µM [inhibitor, partial curve]"
13,CNC(=O)COc1ccc(S(=O)(=O)N2CCCC2)cc1,inactive
14,Cc1cccc(C)c1OCC(=O)N/N=C/c1ccc2c(c1)OCO2,inactive
15,COc1cc(OC)cc(C(=O)N[C@H](C(=O)OCC(=O)Nc2ccc(C(N)=O)cc2)C(C)C)c1,"inconclusive: 0.355 µM [inhibitor, full curve, poor fit]"
16,Cc1ccc(-n2c(C)cc(C(=O)Cn3nc(C(=O)O)c4ccccc4c3=O)c2C)cc1,"inconclusive: 3.55 µM [inhibitor, partial curve]"
17,Cc1cc2oc(C(=O)Nc3sc4c(c3C(=O)NCC3CCCO3)CCC4)cc(=O)c2cc1C (configuration not stated),"inconclusive: 35.5 µM [inhibitor, single point]"
18,CCc1ccc(N2C(=O)CC(c3cc(OC)ccc3OC)C3=C2COC3=O)cc1 (configuration not stated),inactive
19,Cc1ccc(C(=O)Nc2ccccc2C(=O)Nc2ccccn2)cc1Cl,"inconclusive: 89.1 µM [inhibitor, partial curve, poor fit]"
20,CCOC(=O)c1sc(NC(=O)c2nc3ncccn3n2)c(C(=O)OC)c1C,"inconclusive: 0.355 µM [inhibitor, full curve, poor fit]"
21,O=c1oc2c(CN3CCOCC3)c(O)ccc2cc1-c1ccc(Cl)cc1,"inconclusive: 11.2 µM [inhibitor, full curve]"
22,CCCCCCOc1ccc(/C(C)=N/NC2=NCCN2)cc1[N+](=O)[O-],inactive
23,O=[N+]([O-])c1ccc(SCCc2ccccn2)cc1,inactive

row,SMILES,Potency
1,CCNC(=O)NC(=O)COC(=O)c1ccccc1SCC(=O)NC(=O)NCC,inactive
2,COC(=O)CCCC1=CC2=CC(=O)C(C)(OC(=O)c3cccs3)C(=O)C2=CN1C1CC1 (configuration not stated),"inconclusive: 35.5 µM [inhibitor, partial curve]"
3,CN1C(=O)CC(c2ccco2)Sc2ccccc21 (configuration not stated),inactive
4,c1ccc(-c2nnc(CN3CCN(c4ccccc4)CC3)o2)cc1,inactive
5,Cc1cc(NS(=O)(=O)c2ccc(NC(=O)/C=C/c3ccco3)cc2)nc(C)n1,inactive
6,CC(NC(=O)/C(=C/c1ccc2c(c1)OCO2)NC(=O)c1cccc([N+](=O)[O-])c1)C(=O)O (configuration not stated),"inconclusive: 7.08 µM [inhibitor, single point]"
7,Cc1ccc2nc(Cl)c3cc(C(=O)NC4CCC(C)CC4)sc3c2c1 (configuration not stated),inactive
8,N#CC(=C1CCCC1)c1nc(-c2ccccc2)cs1,"inconclusive: 44.7 µM [inhibitor, partial curve]"
9,CCN(CC)c1ccc(NC(=O)c2cc(Cl)ccc2OC)cc1,"inconclusive: 44.7 µM [inhibitor, partial curve, poor fit]"
10,O=C(O)CCCC1(C(=O)O)CCCC1,"inconclusive: 3.98 µM [inhibitor, partial curve]"
11,CCc1cccc(C)c1NC(=O)c1ccc2nc(N3CCOCC3)sc2c1,"inconclusive: 0.708 µM [inhibitor, full curve, poor fit]"
12,Cc1ccc(OCC(=O)Nc2cccc(C(=O)OCc3cc(=O)n4nc(C)sc4n3)c2)cc1,inactive
13,CC(C)[C@@H](C(=O)NCc1ccco1)N1C(=O)N2CCc3c([nH]c4ccccc34)[C@@]2(C)C1=O,"inconclusive: 35.5 µM [inhibitor, partial curve, poor fit]"
14,CCC1C(=O)N=C(SCC(=O)Nc2ccc(C)cc2)N(c2ccccc2)C1=O (configuration not stated),"inconclusive: 31.6 µM [inhibitor, single point]"
15,COc1ccccc1N1CCN(S(=O)(=O)c2cc(C(F)(F)F)cc(C(F)(F)F)c2)CC1,inactive
16,COc1cc(NC(=O)Cn2cnc3sc(C)c(S(=O)(=O)N4CCOCC4)c3c2=O)cc(OC)c1OC,"inconclusive: 31.6 µM [inhibitor, single point]"
17,COC(=O)c1cnc(N2CCN(c3ccc(F)cc3)CC2)c2ccccc12,"inconclusive: 8.91 µM [inhibitor, partial curve, poor fit]"
18,COc1cccc(-c2cc(C(=O)Nc3ccn(Cc4ccc(C)cc4)n3)no2)c1,"inconclusive: 7.94 µM [inhibitor, partial curve]"
19,CCc1cc(SC#N)ccc1N,inactive
20,CCC(CO)Oc1cc(NCc2cccc(Cl)c2)c2ncn(C(C)C)c2c1 (configuration not stated),"inconclusive: 12.6 µM [inhibitor, partial curve]"
21,CC(=O)NCCN1C(=O)C2C3c4ccccc4C(c4ccccc43)C2C1=O (configuration not stated),"inconclusive: 8.91 µM [inhibitor, partial curve]"
22,O=C(CCn1nnc(-c2cccs2)n1)NC1CCCCC1,"inconclusive: 12.6 µM [inhibitor, partial curve]"
23,O=C1NC(=O)C(c2ccccc2)(C2CCCC2)N1 (configuration not stated),"inconclusive: 25.1 µM [inhibitor, single point]"

row,SMILES,Potency
1,CCc1ccc(-c2cc3c(=O)n(CC(=O)NCCN4CCCCC4C)nc(C)n3n2)cc1 (configuration not stated),inactive
2,Cc1oc(C)c(C(N)=O)c1C(N)=O,inactive
3,CC(C)(C)C(=O)/C=c1\[nH]c(=O)/c(=C\c2ccc(F)cc2)s1,"inconclusive: 44.7 µM [inhibitor, partial curve, poor fit]"
4,O=C(NN1C(=O)/C(=C/C=C/c2ccco2)SC1=S)c1ccncc1,"inconclusive: 35.5 µM [inhibitor, partial curve]"
5,COc1ccccc1C1/C(=C(\O)c2ccc3c(c2)OCCO3)C(=O)C(=O)N1CCCn1ccnc1 (configuration not stated),"inconclusive: 50.1 µM [inhibitor, partial curve, poor fit]"
6,S=C(Nc1ccc(Cl)cc1)Nc1cccc2cnccc12,"inconclusive: 28.2 µM [inhibitor, partial curve]"
7,O=Cc1[nH]c2ccccc2c1N(C(=O)CCl)c1ccccc1,"inconclusive: 56.2 µM [inhibitor, partial curve, poor fit]"
8,CC(C)c1ccc2c(c1)-c1ccccc1S(=O)(=O)N2CC(=O)N1CCCCC1,inactive
9,O=C(c1ccccc1)c1ccc2nc(N3CCN(C(=O)c4ccco4)CC3)c3nncn3c2c1,"inconclusive: 44.7 µM [inhibitor, partial curve, poor fit]"
10,COc1ccc(/C(C)=N/Nc2nc(C)c(C(C)=O)s2)cc1,inactive
11,O=C(NCc1cccs1)c1cccc(Nc2nc3ccc(Br)cc3[nH]2)c1,"inconclusive: 44.7 µM [inhibitor, single point]"
12,CC(NC(=O)COC(=O)COc1ccc(Cl)cc1)c1ccccc1 (configuration not stated),"inconclusive: 10 µM [inhibitor, partial curve, poor fit]"
13,O=C(O)c1cc(-c2ccc(/C=C3/SC(=S)N(Cc4ccccc4)C3=O)o2)ccc1Cl,active: 25.1 µM
14,Cc1cc(C)cc(NC(=O)N2CCc3ccccc3C2)c1,inactive
15,O=C(Nc1ccccc1C(=O)N1CCCC1)c1ccccc1,"inconclusive: 0.631 µM [inhibitor, full curve, poor fit]"
16,CCOc1ccc(-n2c(SCC(=O)N3CCCCCC3)nc3c([nH]c4ccccc43)c2=O)cc1,"inconclusive: 1000 µM [inhibitor, partial curve, poor fit]"
17,COc1cc(/C=N/Nc2nc(=O)[nH]nc2C)cc(OC)c1O,inactive
18,CN(C1CCCCC1)S(=O)(=O)c1ccc(S(=O)(=O)N2CCCC2)cc1,inactive
19,O=C(CSc1nnnn1-c1ccc(Cl)cc1)N1CCc2ccccc2C1,"inconclusive: 20 µM [inhibitor, partial curve]"
20,C[C@@H]1CN([C@H](C)CO)C(=O)CCCn2nncc2CO[C@H]1CN(C)S(=O)(=O)c1ccc(Oc2ccccc2)nc1,"inconclusive: 0.794 µM [inhibitor, full curve, poor fit]"
21,C[C@@H]1C=C(C(=O)N2CCN(Cc3ccccc3)CC2)O[C@H](OCc2ccc(CO)cc2)C1,"inconclusive: 79.4 µM [inhibitor, partial curve, poor fit]"

# 4 structures from above, ordered by formula weight, rising.
row,SMILES,Potency
3,CC(C)(C)C(=O)/C=c1\[nH]c(=O)/c(=C\c2ccc(F)cc2)s1,"inconclusive: 44.7 µM [inhibitor, partial curve, poor fit]"
9,CCN(CC)c1ccc(NC(=O)c2cc(Cl)ccc2OC)cc1,"inconclusive: 44.7 µM [inhibitor, partial curve, poor fit]"
3,N#CC1=C(N)OC(c2ccccc2)=C(C#N)C1c1ccc2c(c1)OCO2 (configuration not stated),inactive
6,CC(NC(=O)/C(=C/c1ccc2c(c1)OCO2)NC(=O)c1cccc([N+](=O)[O-])c1)C(=O)O (configuration not stated),"inconclusive: 7.08 µM [inhibitor, single point]"
